Experimental data taken from PubChem BioAssay (EPA / NIEHS).
“And” between values parts separate entries of the source, which are not always exact repeats. Equal entries are not always repeated. The shares of active, inactive and inconclusive entries below differ from those in the screen. For some of these results: Potencies of inconclusive entries are doubtful fits and often do not repeat. The source made the active and inactive calls. Rule for the calls: active = hit-call score of the fitted dose curve at least 0.9, where 1 is the maximum; inconclusive = response in the unintended direction; inactive = score below 0.9.

Chains of the proteins cited; added tags and fusions are not shown. Lines headed by an entry give the natural chain unless they say otherwise; changes in a name come on top.
UniProt P14600, whole entry, looked up: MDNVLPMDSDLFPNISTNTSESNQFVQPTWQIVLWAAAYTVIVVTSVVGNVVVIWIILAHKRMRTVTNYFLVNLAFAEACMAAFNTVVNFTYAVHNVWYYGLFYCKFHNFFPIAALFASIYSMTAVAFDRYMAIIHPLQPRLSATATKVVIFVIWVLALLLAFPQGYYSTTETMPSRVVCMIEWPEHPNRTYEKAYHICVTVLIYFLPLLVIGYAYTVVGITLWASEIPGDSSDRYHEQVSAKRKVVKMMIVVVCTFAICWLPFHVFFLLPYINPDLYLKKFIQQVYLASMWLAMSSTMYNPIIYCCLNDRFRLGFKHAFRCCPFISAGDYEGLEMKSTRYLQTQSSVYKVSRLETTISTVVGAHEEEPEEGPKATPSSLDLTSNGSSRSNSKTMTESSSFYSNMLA
UniProt P20789, whole entry, looked up: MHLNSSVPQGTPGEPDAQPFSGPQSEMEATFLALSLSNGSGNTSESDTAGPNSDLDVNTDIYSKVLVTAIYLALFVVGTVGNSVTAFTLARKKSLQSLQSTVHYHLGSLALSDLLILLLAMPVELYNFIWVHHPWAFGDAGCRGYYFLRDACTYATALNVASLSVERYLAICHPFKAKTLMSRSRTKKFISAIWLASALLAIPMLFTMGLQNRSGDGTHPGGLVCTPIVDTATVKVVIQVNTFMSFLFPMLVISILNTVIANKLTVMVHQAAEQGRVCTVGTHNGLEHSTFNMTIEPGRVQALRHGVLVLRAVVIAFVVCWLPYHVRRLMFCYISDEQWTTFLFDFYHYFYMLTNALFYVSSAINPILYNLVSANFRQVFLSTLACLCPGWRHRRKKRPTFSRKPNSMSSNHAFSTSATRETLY
UniProt P28646: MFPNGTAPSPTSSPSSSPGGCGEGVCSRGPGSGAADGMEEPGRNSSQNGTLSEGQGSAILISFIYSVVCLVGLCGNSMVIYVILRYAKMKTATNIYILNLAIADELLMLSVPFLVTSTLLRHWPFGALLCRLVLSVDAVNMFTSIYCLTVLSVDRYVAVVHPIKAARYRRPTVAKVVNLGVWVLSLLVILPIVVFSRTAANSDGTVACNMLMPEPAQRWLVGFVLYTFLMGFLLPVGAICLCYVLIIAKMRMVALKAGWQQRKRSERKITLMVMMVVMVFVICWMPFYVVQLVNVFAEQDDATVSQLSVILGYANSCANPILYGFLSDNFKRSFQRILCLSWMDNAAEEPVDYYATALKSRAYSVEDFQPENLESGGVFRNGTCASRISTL
UniProt P62813: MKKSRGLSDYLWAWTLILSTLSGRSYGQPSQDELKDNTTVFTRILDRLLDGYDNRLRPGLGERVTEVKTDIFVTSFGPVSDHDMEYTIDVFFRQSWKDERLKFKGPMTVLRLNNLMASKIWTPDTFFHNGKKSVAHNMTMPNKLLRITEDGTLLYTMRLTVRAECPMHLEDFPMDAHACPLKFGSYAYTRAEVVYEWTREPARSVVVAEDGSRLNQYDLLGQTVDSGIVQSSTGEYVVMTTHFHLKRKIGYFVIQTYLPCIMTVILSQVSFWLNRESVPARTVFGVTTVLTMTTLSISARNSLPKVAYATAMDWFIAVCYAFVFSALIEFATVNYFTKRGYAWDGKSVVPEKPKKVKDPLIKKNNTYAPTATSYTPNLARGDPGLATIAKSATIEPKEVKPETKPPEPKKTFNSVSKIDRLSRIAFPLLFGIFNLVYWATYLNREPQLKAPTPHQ
UniProt P16177, whole entry, looked up: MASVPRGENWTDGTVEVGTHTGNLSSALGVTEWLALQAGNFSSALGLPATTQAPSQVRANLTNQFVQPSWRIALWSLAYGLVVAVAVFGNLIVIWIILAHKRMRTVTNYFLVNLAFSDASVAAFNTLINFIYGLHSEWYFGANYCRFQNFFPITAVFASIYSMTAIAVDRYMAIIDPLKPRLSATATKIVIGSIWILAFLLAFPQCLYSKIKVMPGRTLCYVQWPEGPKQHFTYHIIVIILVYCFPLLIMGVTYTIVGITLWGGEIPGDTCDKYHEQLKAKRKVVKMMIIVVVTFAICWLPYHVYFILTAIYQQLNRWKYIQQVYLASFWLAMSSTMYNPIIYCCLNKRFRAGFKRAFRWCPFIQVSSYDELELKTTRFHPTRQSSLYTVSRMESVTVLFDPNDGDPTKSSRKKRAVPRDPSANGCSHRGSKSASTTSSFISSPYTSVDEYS
UniProt Q01717: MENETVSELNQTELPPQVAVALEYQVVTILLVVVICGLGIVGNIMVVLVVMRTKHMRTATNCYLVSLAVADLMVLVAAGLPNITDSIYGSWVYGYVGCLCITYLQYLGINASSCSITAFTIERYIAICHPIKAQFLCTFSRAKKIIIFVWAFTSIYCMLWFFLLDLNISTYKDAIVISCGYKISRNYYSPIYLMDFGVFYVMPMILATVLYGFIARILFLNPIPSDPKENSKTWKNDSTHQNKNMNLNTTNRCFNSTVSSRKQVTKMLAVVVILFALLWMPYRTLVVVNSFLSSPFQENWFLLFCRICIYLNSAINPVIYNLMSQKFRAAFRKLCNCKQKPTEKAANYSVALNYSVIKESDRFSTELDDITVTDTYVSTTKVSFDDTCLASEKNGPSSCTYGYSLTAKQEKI
UniProt P30560, whole entry, looked up: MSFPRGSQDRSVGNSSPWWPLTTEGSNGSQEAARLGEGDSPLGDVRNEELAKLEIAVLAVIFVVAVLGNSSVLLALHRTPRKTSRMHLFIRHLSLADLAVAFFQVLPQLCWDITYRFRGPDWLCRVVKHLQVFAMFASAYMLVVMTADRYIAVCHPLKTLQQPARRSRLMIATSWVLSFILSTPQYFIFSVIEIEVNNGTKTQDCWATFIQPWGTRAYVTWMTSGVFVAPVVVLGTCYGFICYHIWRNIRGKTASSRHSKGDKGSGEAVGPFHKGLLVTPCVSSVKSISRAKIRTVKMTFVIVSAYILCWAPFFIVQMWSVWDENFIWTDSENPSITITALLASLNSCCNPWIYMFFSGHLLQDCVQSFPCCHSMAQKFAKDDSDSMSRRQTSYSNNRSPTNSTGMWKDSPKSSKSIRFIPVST
UniProt P30536, whole entry, looked up: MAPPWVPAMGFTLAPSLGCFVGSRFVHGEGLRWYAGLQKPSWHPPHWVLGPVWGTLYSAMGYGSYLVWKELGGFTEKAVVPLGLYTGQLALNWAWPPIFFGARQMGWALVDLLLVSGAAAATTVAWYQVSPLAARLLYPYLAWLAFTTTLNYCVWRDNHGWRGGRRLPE
UniProt P08219: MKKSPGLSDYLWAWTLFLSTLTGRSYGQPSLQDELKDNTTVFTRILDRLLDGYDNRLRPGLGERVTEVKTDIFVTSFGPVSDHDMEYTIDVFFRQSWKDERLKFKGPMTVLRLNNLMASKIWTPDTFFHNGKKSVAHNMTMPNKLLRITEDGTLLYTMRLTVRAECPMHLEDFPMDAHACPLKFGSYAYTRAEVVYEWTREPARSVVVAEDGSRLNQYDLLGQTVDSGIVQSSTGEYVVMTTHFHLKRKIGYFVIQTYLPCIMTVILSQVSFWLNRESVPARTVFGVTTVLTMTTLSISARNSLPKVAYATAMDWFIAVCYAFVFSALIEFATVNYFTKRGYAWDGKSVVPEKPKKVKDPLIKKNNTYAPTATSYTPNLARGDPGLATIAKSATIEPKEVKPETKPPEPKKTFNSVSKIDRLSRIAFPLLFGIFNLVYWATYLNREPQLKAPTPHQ
UniProt Q15822: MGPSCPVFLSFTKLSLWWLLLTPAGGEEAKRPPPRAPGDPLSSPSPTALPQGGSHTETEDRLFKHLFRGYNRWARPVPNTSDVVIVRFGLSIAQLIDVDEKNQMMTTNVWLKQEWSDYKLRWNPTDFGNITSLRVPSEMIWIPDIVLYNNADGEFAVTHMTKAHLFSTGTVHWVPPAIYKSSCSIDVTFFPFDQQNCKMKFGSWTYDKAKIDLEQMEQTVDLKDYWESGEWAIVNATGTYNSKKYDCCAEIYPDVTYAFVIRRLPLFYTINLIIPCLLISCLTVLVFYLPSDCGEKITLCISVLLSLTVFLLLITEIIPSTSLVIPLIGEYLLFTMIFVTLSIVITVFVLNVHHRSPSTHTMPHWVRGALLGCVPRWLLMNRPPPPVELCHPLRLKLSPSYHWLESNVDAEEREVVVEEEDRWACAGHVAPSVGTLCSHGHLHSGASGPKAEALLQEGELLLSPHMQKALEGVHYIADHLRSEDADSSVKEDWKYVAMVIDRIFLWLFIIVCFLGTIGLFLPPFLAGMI
UniProt Q08E50: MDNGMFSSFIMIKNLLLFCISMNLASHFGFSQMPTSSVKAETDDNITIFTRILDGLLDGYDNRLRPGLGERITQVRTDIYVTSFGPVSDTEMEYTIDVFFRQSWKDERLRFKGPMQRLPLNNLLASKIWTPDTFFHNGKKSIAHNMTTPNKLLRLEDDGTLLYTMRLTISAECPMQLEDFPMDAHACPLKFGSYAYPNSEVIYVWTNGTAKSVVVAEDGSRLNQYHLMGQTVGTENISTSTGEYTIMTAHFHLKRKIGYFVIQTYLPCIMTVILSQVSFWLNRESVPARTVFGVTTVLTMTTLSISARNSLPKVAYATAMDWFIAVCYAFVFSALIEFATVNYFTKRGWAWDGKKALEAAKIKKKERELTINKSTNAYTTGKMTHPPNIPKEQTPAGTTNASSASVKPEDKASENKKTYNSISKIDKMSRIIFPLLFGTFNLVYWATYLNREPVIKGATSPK
UniProt P33535, whole entry, looked up: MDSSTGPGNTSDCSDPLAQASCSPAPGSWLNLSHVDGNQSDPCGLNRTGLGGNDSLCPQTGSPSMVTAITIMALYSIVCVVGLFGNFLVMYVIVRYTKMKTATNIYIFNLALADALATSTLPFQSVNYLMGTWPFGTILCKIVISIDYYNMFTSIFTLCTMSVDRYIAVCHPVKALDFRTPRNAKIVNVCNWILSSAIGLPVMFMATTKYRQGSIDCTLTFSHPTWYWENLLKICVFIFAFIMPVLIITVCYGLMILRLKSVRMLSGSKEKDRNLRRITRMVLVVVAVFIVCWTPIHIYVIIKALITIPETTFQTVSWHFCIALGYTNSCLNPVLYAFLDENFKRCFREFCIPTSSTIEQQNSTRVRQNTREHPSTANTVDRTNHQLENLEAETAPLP

Columns and labels:
[1] = molecular target: rat Neurokinin-1 Receptor (NK1), Tacr1 (gene 24807) (UniProt P14600); experiment: NVS_GPCR_rNK1: NovaScreen (NVS) G Protein-Coupled Receptor Assay for rat Neurokinin-1 Receptor (NK1) (AID 2283309)
How it was run: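 Competitive radioligand binding to NK1 in rat submaxillary membranes, 1 h incubation, filtration and scintillation read-out. Compounds first screened at 25 uM in duplicate, then concentration-response for actives; signal loss relative to DMSO.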

[2] = molecular target: rat Neurotensin Receptor (NTS), Ntsr1 (gene 366274) (UniProt P20789); experiment: NVS_GPCR_rNTS: NovaScreen (NVS) G Protein-Coupled Receptor Assay for rat Neurotensin Receptor (NTS) (AID 2283308)
How it was run: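 Single-point duplicates at 25 uM, then concentration series to 50 uM max for hits, measured radioligand displacement on rat forebrain membrane preparations. Bound label counted by filtration scintillation at 1 h; signal loss relative to DMSO fitted.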

[3] = molecular target: rat Somatostatin Receptor (SST), Sstr1 (gene 25033) (UniProt P28646); experiment: NVS_GPCR_rSST: NovaScreen (NVS) G Protein-Coupled Receptor Assay for rat Somatostatin Receptor (SST) (AID 2283314)
How it was run: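 Single-concentration duplicate screen (25 uM), then concentration-response up to 50 uM for chemicals passing a threshold such as 30% inhibition. Membranes came from rat forebrain. Binding was measured 1 h post-dose by filter radiodetection and scintillation, relative to DMSO.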

[4] = molecular target: rat Gamma-Aminobutyric Acid Type A Receptor, Non-Selective (GABAR-NonSelective), Gabra1 (gene 29705) (UniProt P62813); experiment: NVS_LGIC_rGABAR_NonSelective: NovaScreen (NVS) Ligand-Gated Ion Channel Assay for rat Gamma-Aminobutyric Acid Type A Receptor, Non-Selective (GABAR-NonSelective) (AID 2283326)
How it was run: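 Compounds were first screened in duplicate at 25 uM, with actives run as singleton concentration series (max 50 uM). Binding of a radioligand to rat whole-brain GABA-A preparation was measured by filtration and scintillation counting after 1 h, DMSO baseline.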

[5] = molecular target: rat Neurokinin-3 Receptor (NK3), Tacr3 (gene 24808) (UniProt P16177); experiment: NVS_GPCR_rNK3: NovaScreen (NVS) G Protein-Coupled Receptor Assay for rat Neurokinin-3 Receptor (NK3) (AID 2283310)
How it was run: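 Filter-based radioligand displacement on rat cortex membrane preparations, read by scintillation 2 h post-dose. Chemicals first tested in duplicate at 25 uM; actives followed up in concentration series with a 50 uM maximum.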

[6] = molecular target: rat Thyrotropin Releasing Hormone Receptor (TRH), Trhr (gene 25570) (UniProt Q01717); experiment: NVS_GPCR_rTRH: NovaScreen (NVS) G Protein-Coupled Receptor Assay for rat Thyrotropin Releasing Hormone Receptor (TRH) (AID 2283329);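 note: hit means lower bound tracer signal versus DMSO baseline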
How it was run: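 Test compounds are screened at 25 uM in duplicate against radioligand binding in rat forebrain membranes, with active pairs followed up over a concentration range. Detection uses filter-based radiodetection after a 4 h exposure.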

NCBI gene 24521 = experiment: NVS_IC_rKATPCh: NovaScreen (NVS) Ion Channel Assay for rat Potassium Channel, ATP-Sensitive (KATPCh) (AID 2283319)
How it was run: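 Primary duplicate screen at 25 uM, then singleton concentration series to 50 uM maximum, in a rat cortex membrane radioligand displacement assay. Binding measured by filtration and scintillation 2 h post-dose; DMSO baseline.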

[7] = molecular target: rat Vasopressin 1 Receptor (V1), Avpr1a (gene 25107) (UniProt P30560); experiment: NVS_GPCR_rV1: NovaScreen (NVS) G Protein-Coupled Receptor Assay for rat Vasopressin 1 Receptor (V1) (AID 2283316)
How it was run: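 Concentration-response up to 50 uM for chemicals passing a threshold such as 30% inhibition in an initial duplicate 25 uM screen. Displacement of radioligand from rat liver membranes measured after 1.5 h by filtration and scintillation.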

[8] = molecular target: rat Glutamate, NMDA Agonist Site (GluNMDA), Grin1 (gene 24408) (UniProt P35439); experiment: NVS_LGIC_rGluNMDA_Agonist: NovaScreen (NVS) Ligand-Gated Ion Channel Assay for rat Glutamate, NMDA Agonist Site (GluNMDA) (AID 2283327)
How it was run: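 Radioligand displacement at the agonist site on rat forebrain membrane preparations, read by filter scintillation after 1 h. Chemicals were first run at 25 uM in duplicate; those passing threshold were titrated to a 50 uM maximum.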

[9] = molecular target: human Peripheral-type Benzodiazepine Receptor (PBR), TSPO (gene 706) (UniProt P30536); experiment: NVS_MP_hPBR: NovaScreen (NVS) Membrane Protein Assay for human Peripheral-type Benzodiazepine Receptor (PBR) (AID 2283331);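 note: hits reduce radioligand binding relative to DMSO baseline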
How it was run: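 Cell-free radioligand displacement, human colonic membranes, 1 h exposure. Filter radiodetection read-out. Single-concentration duplicates (25 uM), then concentration-response for actives; DMSO negative control.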

[10] = molecular target: bovine Gamma-Aminobutyric Acid Type A Receptor BDZ, alpha 1 site (GABARa1), GABRA1 (gene 780973) (UniProt P08219); experiment: NVS_LGIC_bGABARa1: NovaScreen (NVS) Ligand-Gated Ion Channel Assay for bovine Gamma-Aminobutyric Acid Type A Receptor BDZ, alpha 1 site (GABARa1) (AID 2283321)
How it was run: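 Bovine cortex membrane preparation, benzodiazepine site on GABA-A alpha1; specific radioligand displacement read after 0.75 h by filtration and scintillation. Screen at 25 uM, then singleton titrations up to 50 uM; DMSO baseline.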

[11] = molecular target: Voltage-dependent N-type calcium channel subunit alpha-1B (Rattus norvegicus) (UniProt Q02294); experiment: NVS_IC_rCaChN: NovaScreen (NVS) Ion Channel Assay for rat Calcium Channel, Type N (CaChN) (AID 2283317)
[12] = molecular target: human Neonicotinoid receptor (NNR), CHRNA2 (gene 1135) (UniProt Q15822); experiment: NVS_LGIC_hNNR_NBungSens: NovaScreen (NVS) Ligand-Gated Ion Channel Assay for human Neonicotinoid receptor (NNR) (AID 2283313)
How it was run: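 Compounds first screened in duplicate at 25 uM, then actives re-tested in single-replicate dose series up to 50 uM. Binding measured as displacement of specific radioligand from neuroblastoma membrane receptors after 2 h, scintillation read on filters.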

[13] = molecular target: bovine Gamma-Aminobutyric Acid Type A Receptor BDZ, alpha 5 site (GABARa5), GABRA5 (gene 523515) (UniProt Q08E50); experiment: NVS_LGIC_bGABARa5: NovaScreen (NVS) Ligand-Gated Ion Channel Assay for bovine Gamma-Aminobutyric Acid Type A Receptor BDZ, alpha 5 site (GABARa5) (AID 2283323)
How it was run: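 Tested first in duplicate at a single 25 uM, with hits re-run in concentration series to a 50 uM maximum. Bovine hippocampal membranes; specific radioligand displacement measured by filter scintillation counting 1 hr post-dose.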

[14] = molecular target: rat Opioid Receptor, Non-selective Binding, Oprm1 (gene 25601) (UniProt P33535); experiment: NVS_GPCR_rOpiate_NonSelective: NovaScreen (NVS) G Protein-Coupled Receptor Assay for rat Opioid Receptor, Non-selective Binding (AID 2283318)
How it was run: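 Filter-based radioligand displacement using rat forebrain membrane preparations, measured 1.5 h post-dosing. Single-concentration duplicate screen at 25 uM, follow-up in concentration series; activity taken as signal loss relative to DMSO.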

[15] = NVS_IC_rCaDHPRCh_L: NovaScreen (NVS) Ion Channel Assay for rat Calcium Channel, Type L, Dihydropyridine Site (CaDHPRCh_L) (AID 2283320)
How it was run: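 Rat cortex membrane preparation; dihydropyridine-site radioligand displacement read 1 h post-dose by filtration and scintillation. Primary single-point screen 25 uM in duplicate, then concentration series to 50 uM maximum; DMSO as negative control.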

With `Cc1cc(C)nc(Nc2ccccc2)n1` the outcome [1] was “inactive”.
In the case of `CC(C)(C)C(O)(CCc1ccc(Cl)cc1)Cn1cncn1` (stereo not given), the AC50 [1] was active: 12.9 µM.
In the case of `Nn1cnnc1`, the AC50 [2] was inconclusive: 47.3 nM, the AC50 [3] was inconclusive: 25 µM and the AC50 [4] was inconclusive: 25 µM.
In the case of `C=C(C)C(=O)[O][Sn]([CH2]CCC)([CH2]CCC)[CH2]CCC`, the AC50 [1] was inconclusive: 43.3 µM, the AC50 [5] was active: 1400 nM and the AC50 [3] was active: 12.8 µM. The AC50 [6] was active: 20.3 µM.
For `COc1cccc(C(=O)NN(C(=O)c2cc(C)cc(C)c2)C(C)(C)C)c1C`, the AC50 [5] was inconclusive: 25000 nM.
In the case of `Cc1ccccc1[N+](=O)[O-]`, the AC50 [1] was inconclusive: 25 µM.
For `Cc1c(F)c(F)c(COC(=O)C2C(/C=C(\Cl)C(F)(F)F)C2(C)C)c(F)c1F` (stereo not given), the outcome [2] was “inactive”.
For `CCCCOC(=O)[C@@H](C)Oc1ccc(Oc2ccc(C#N)cc2F)cc1`, the AC50 [2] was inconclusive: 4960 nM and the AC50 (NCBI gene 24521) was inconclusive: 45.9 µM.
With `CCCCCCCCn1sccc1=O` the outcome [5] was “inactive”, the AC50 [7] was inconclusive: 45.9 µM and the AC50 [8] was inconclusive: 26 µM.
With `CSC1=N[C@@](C)(c2ccccc2)C(=O)N1Nc1ccccc1` the outcome [1] was “inactive”.
In the case of `CCCCN(CCCC)SN(C)C(=O)Oc1cccc2c1OC(C)(C)C2`, the outcome [2] was “inactive” and the AC50 [9] was inconclusive: 6.54 µM.
For `COc1nc(C)nc(NC(=O)NS(=O)(=O)c2ccccc2Cl)n1`, the AC50 [2] was inconclusive: 238 nM and the outcome [2] was “inactive”.
For `CCC(C)c1ccc(O)cc1` (stereo not given), the AC50 [2] was inconclusive: 114 nM.
In the case of `CCSC(=O)N(CC)C1CCCCC1`, the AC50 [2] was inconclusive: 25000 nM and the AC50 [10] was inconclusive: 69 nM.
With `COc1nc(C)nc(NC(=O)NS(=O)(=O)c2ccccc2CCC(F)(F)F)n1` the AC50 [1] was inconclusive: 25 µM and the outcome [8] was “inactive”.
With `C=CCC1=C(C)C(OC(=O)C2C(C=C(C)C)C2(C)C)CC1=O` (stereo not given) the outcome [5] was “inactive”.
For `ClC1=C(Cl)[C@]2(Cl)[C@H]3[C@H]([C@@H]4C=C[C@H]3C4)[C@@]1(Cl)C2(Cl)Cl`, the AC50 [2] was inconclusive: 150 nM.
For `COC(=O)c1ccccc1C(=O)OC`, the AC50 [2] was inconclusive: 1720 nM, the outcome (NCBI gene 24521) was “inactive” and the outcome [9] was “inactive”.
For `CC[C@H](C)[C@H]1O[C@]2(C=C[C@@H]1C)C[C@@H]1C[C@@H](C/C=C(\C)[C@@H](O[C@H]3C[C@H](OC)[C@@H](O[C@H]4C[C@H](OC)[C@@H](NC)[C@H](C)O4)[C@H](C)O3)[C@@H](C)/C=C/C=C3\CO[C@@H]4[C@H](O)C(C)=C[C@@H](C(=O)O1)[C@]34O)O2`, the AC50 [2] was inconclusive: 12300 nM and the outcome [11] was “inactive”.
With `COC(=O)C(C)Oc1ccc(Oc2ccc(Cl)cc2Cl)cc1` (stereo not given) the AC50 [2] was inconclusive: 25 µM and inconclusive: 75.2 nM, the outcome [2] was “inactive” and the AC50 [1] was inconclusive: 39.3 µM. The outcome (NCBI gene 24521) was “inactive”.
With `Oc1ccc(Cl)cc1Cc1ccccc1` the outcome [1] was “inactive”.
With `CCCCCCCCCC[N+](C)(C)CCCCCCCCCC` the outcome [1] was “inactive” and the AC50 [9] was active: 21.5 µM.
In the case of `[2H]C1([2H])[n+]2ccccc2-c2cccc[n+]2C1([2H])[2H]`, the AC50 [5] was inconclusive: 374 nM and the AC50 [12] was inconclusive: 78.1 nM.
For `Oc1ccccc1-c1ccccc1`, the AC50 [2] was inconclusive: 352 nM, the AC50 [6] was inconclusive: 0.438 µM and the outcome [6] was “inactive”.
With `COc1ccc(C(=CC(=O)N2CCOCC2)c2ccc(Cl)cc2)cc1OC` the outcome [1] was “inactive” and the outcome [9] was “inactive”.
For `CNC(=O)ON=CC(C)(C)SC`, the AC50 [1] was inconclusive: 1.58 µM.
For `CCC[CH2][Sn]([Cl])([CH2]CCC)[CH2]CCC`, the AC50 [1] was inconclusive: 25 µM and the outcome [3] was “inactive”.
For `CCCCC(O)(Cn1cncn1)c1ccc(Cl)cc1Cl` (stereo not given), the AC50 [1] was inconclusive: 25 µM, the AC50 [5] was inconclusive: 647 nM and the outcome [6] was “inactive”.
With `Cc1cc2c3c(c1)C(c1ccccc1)=N[C@@H](NC(=O)c1ccncc1)C(=O)N3CC2` the outcome [1] was “inactive”, the AC50 [5] was active: 73 nM and the AC50 [3] was inconclusive: 25 µM. The AC50 [13] was active: 1.43 µM.
With `CCC(=O)O[C@H]1CC[C@H]2[C@@H]3CCC4=CC(=O)CC[C@]4(C)[C@H]3CC[C@]12C` the outcome [5] was “inactive” and the outcome [11] was “inactive”.
With `O=C(Nc1ccccc1-c1ccc(Cl)cc1)c1cccnc1Cl` the outcome [2] was “inactive”.
In the case of `CSC(C)(C)C=NO`, the AC50 [1] was inconclusive: 25 µM, the AC50 [14] was inconclusive: 5.98 µM and the AC50 [15] was inconclusive: 25 µM. The AC50 [8] was inconclusive: 6.84 µM.
In the case of `C#CCOS(=O)OC1CCCCC1Oc1ccc(C(C)(C)C)cc1` (stereo not given), the AC50 [2] was inconclusive: 25000 nM, the outcome [14] was “inactive” and the AC50 [8] was inconclusive: 0.238 µM.
In the case of `Clc1ccc(C(c2ccc(Cl)cc2)C(Cl)Cl)cc1`, the AC50 [1] was inconclusive: 25 µM and the AC50 [9] was inconclusive: 6.6 µM.
